Values from PubChem BioAssay AID1224826 (NIAID, 2016)
Screen: 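Knock-downs that raise or lower Tnf reporter signal after endotoxin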 (primary screen). Cell system: RAW264.7 G9 macrophages from mouse bearing reporters for p65 (GFP) and the Tnf promoter (mCherry). Reagent: siRNA pool against mouse genes, 100 nM. Timing: 16 h of LPS stimulation, after 2 days of siRNA transfection. Challenge: bacterial lipopolysaccharide (Salmonella minnesota R595), 10 ng/ml. Measurement: 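Imaged Tnf reporter mCherry in nuclei, minus background, normalised per plate to the median and expressed as robust z-scores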. Scale: Tnf reporter robust z-score: higher = stronger Tnf promoter reporter signal after LPS; Tnf reporter intensity: higher = stronger Tnf promoter reporter signal. Rule for the call: 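Called active when robust z-score is at most -1.3, matching the median of the Tlr4 knock-down control, or over 3; control wells and wells with under 50 cells never active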. Calls: active = Tnf reporter clearly lowered or raised; inactive = no clear change in Tnf reporter.
The whole screen tested about 17,000 reagents; below is a random part of them. About 1,110 of them (6.6%) count as active. 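Active means lowered or raised reporter signal; replicate intensities are raw and not normalised per plate.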 Entries without a mark were called inactive. A reagent listed more than once was tested more than once; the source does not tell the runs apart.

Gene | Tnf reporter robust z-score | fewer than 50 cells in well | Tnf reporter intensity, replicate 1 | Tnf reporter intensity, replicate 2
Ptpdc1 | 0.16 | enough cells in well | 117 | 221
Myo7a | -0.69 | enough cells in well | 224 | 139
Nradd | 1.46 | enough cells in well | 362 | 158
B230206H07Rik | -0.35 | enough cells in well | 153 | 143
Speg | 0.06 | enough cells in well | 185 | 157
Ift74 | 0.26 | enough cells in well | 137 | 250
Dnase2a | -0.21 | enough cells in well | 222 | 185
Cdc42ep1 | -0.28 | enough cells in well | 199 | 212
Mrpl21 | -0.02 | enough cells in well | 187 | 226
Asb13 | 0.13 | enough cells in well | 211 | 141
Stk16 | -0.45 | enough cells in well | 151 | 124
Sumo1 | -0.25 | enough cells in well | 250 | 201
Mstn | -0.82 | enough cells in well | 187 | 169
Cmpk2 | 2.33 | enough cells in well | 216 | 156
Elmod3 | 0.73 | enough cells in well | 169 | 214
Bcl11a | 1.18 | enough cells in well | 200 | 231
Popdc2 | 1.04 | enough cells in well | 191 | 158
Ccn5 | 1.04 | enough cells in well | 399 | 271
Nxf7 | -1.12 | enough cells in well | 116 | 94.2
Tnfrsf11b | -1.96 (active) | enough cells in well | 79.5 | 45.2
B3galnt1 | 1.45 | enough cells in well | 285 | 215
Calb2 | -0.37 | enough cells in well | 158 | 135
Hpcal4 | -0.26 | enough cells in well | 220 | 153
Polg | -0.74 | enough cells in well | 217 | 117
Pdha2 | -1.08 | enough cells in well | 78.2 | 99.6
Chrm2 | 1.16 | enough cells in well | 306 | 398
Atp4b | -0.16 | enough cells in well | 182 | 136
Capza2 | -0.22 | enough cells in well | 130 | 155
Fasn | -1.2 | enough cells in well | 173 | 96.7
Stc1 | 0.79 | enough cells in well | 184 | 73.5
Lias | 0.69 | enough cells in well | 223 | 190
Zfp385c | -0.91 | enough cells in well | 170 | 110
Arhgef19 | 0.37 | enough cells in well | 245 | 169
Lrtm1 | -0.7 | enough cells in well | 111 | 122
Sult2a8 | -0.68 | enough cells in well | 207 | 49.4
Nomo1 | 1.2 | enough cells in well | 325 | 320
Vapb | 3.46 (active) | enough cells in well | 250 | 199
Vmac | 0.8 | enough cells in well | 316 | 186
Nt5c | 0.81 | enough cells in well | 222 | 205
Akt1 | 1.01 | enough cells in well | 263 | 148
Akt1 | 0.2 | enough cells in well | 203 | 362
Wdhd1 | -0.78 | enough cells in well | 190 | 77.3
Ifih1 | 0.89 | enough cells in well | 246 | 232
Or1j14 | 0.29 | enough cells in well | 216 | 120
Ginm1 | 2.07 | enough cells in well | 336 | 369
Pspn | 0.06 | enough cells in well | 239 | 206
Mmp16 | 0.46 | enough cells in well | 292 | 248
Hoxa11 | 0.88 | enough cells in well | 296 | 255
Gck | -0.74 | enough cells in well | 166 | 103
Rack1 | -0.5 | enough cells in well | 236 | 123
D6Ertd160e | 0.2 | enough cells in well | 253 | 160
Gtf3c4 | -0.53 | enough cells in well | 215 | 189
Pde6d | -0.23 | enough cells in well | 211 | 177
Lipi | -0.13 | enough cells in well | 186 | 150
Ccdc69 | -0.82 | enough cells in well | 145 | 116
Il10 | 0.36 | enough cells in well | 261 | 216
Dera | -0.12 | enough cells in well | 218 | 74.2
Mmp9 | 1.49 | enough cells in well | 356 | 342

3 entries from above in another layout:
{"Gene": "Asb13", "Tnf reporter robust z-score": 0.13, "fewer than 50 cells in well": "enough cells in well", "Tnf reporter intensity, replicate 1": 211, "Tnf reporter intensity, replicate 2": 141}
{"Gene": "Stk16", "Tnf reporter robust z-score": -0.45, "fewer than 50 cells in well": "enough cells in well", "Tnf reporter intensity, replicate 1": 151, "Tnf reporter intensity, replicate 2": 124}
{"Gene": "Sumo1", "Tnf reporter robust z-score": -0.25, "fewer than 50 cells in well": "enough cells in well", "Tnf reporter intensity, replicate 1": 250, "Tnf reporter intensity, replicate 2": 201}
